In the supplement of paper PMC8326762, “A Small Molecule Inhibitor of Pex3–Pex19 Interaction Disrupts Glycosome Biogenesis and Causes Lethality in Trypanosoma brucei” (Frontiers in Cell and Developmental Biology, 2021):
Counter-ions that a name gives are not always drawn. The list shows a part of the results. This is a noisy data set.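 Optical density at 600 nm measured yeast growth. Because the two-hybrid strains grew without histidine, growth required Pex3–Pex19 binding. Trypanosome selectivity meant a compound inhibited the trypanosome-pair strain's growth by more than 65% but the human-pair strain's by less than 65%.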

Experiments:
[1] = test system: Saccharomyces cerevisiae HF7c pdr5Δ; experiment: general growth inhibition of yeast HF7c pdr5Δ in -Leu -Trp medium, relative to DMSO; higher = stronger general growth inhibition; conditions: 100 µM; 24 h
[2] = test system: human PEX3-PEX19 interaction (yeast two-hybrid); experiment: growth inhibition of yeast two-hybrid strain reporting HsPex3-HsPex19 interaction, relative to DMSO; higher = stronger inhibition of human Pex3-Pex19 interaction / growth; conditions: 100 µM; 24 h; 3-aminotriazole 10 mM
[3] = test system: T. brucei Pex3-Pex19 interaction (yeast two-hybrid); experiment: growth inhibition of yeast two-hybrid strain reporting TbPex3-TbPex19 interaction, relative to DMSO; higher = stronger inhibition of T. brucei Pex3-Pex19 interaction / growth; conditions: 100 µM; 24 h

Compound | general growth inhibition [1] [%] | growth inhibition [2] [%] | growth inhibition [3] [%]
C=CCN1CC[C@]23CCCC[C@H]2[C@H]1Cc1ccc(O)cc13 [Levallorphan tartrate] | 47.1 | 38.8 | 53.5
Cc1cccc(C)c1NC1=NCCCS1 [Xylazine hydrochloride] | 51.4 | 54.8 | 72.1
COc1ccc(OC)c(C(O)C(C)N)c1 (stereo unspecified) [Methoxamine hydrochloride] | 52 | 45.1 | 67.5
O=C(O)c1nn(Cc2ccc(Cl)cc2Cl)c2ccccc12 [Lonidamine] | 23 | 22.6 | 23.9
CCCN1CC[C@@H]2c3cc(O)ccc3CC[C@@H]21 (racemic) [cis(+/-)-8-OH-PBZI hydrobromide] | 45.5 | 40.5 | 70.7
COc1cc(C(O)CN)ccc1O (racemic) [(±)-Normetanephrine hydrochloride] | 52.9 | 40.5 | 67.3
C[C@H](N)CN1CCc2ccc(Br)cc21 [VER-3323 hemifumarate salt] | 35.8 | 11.6 | 61.9
O=C1CCCN1CC#CCN1CCCC1 [Oxotremorine sesquifumarate salt] | 50.9 | 50.3 | 69.6
CC(C)N(CCC(C(N)=O)(c1ccccc1)c1ccccn1)C(C)C (stereo unspecified) [Disopyramide phosphate] | 32.4 | 32.2 | 53.1
N=C(NCCC[C@H](N)C(=O)O)N[N+](=O)[O-] [NG-Nitro-L-arginine] | 44.6 | 42.4 | 54.7
NC(=O)c1cc(N2CC2)c([N+](=O)[O-])cc1[N+](=O)[O-] | 38 | 42.7 | 57
CN1[C@@H]2CC[C@H]1C[C@@H](OC(c1ccccc1)c1ccccc1N)C2 (stereo partly specified) [Aminobenztropine] | 40.9 | 39.1 | 62.1
CC(C)(C)c1cc(C(C)(C)C)c2c(c1)C(O)(C(F)(F)F)C(=O)O2 (racemic) | 88.8 | 85.1 | 82.3
Oc1ccc2c3c1O[C@H]1c4oc5ccccc5c4C[C@@]4(O)[C@@H](C2)N(CC2CC2)CC[C@]314 [Naltriben methanesulfonate] | 31.5 | 43 | 57.8
O=C(N[C@H]1CN2CCC1CC2)c1ccc(Cl)cc1 | 42.2 | 51.6 | 66.3
CC(C)(C)OC(=O)NC1[C@H]2CNC[C@@H]12 (stereo partly specified) | 41.9 | 44.6 | 68.8
N[C@@H]1C[C@H]1c1ccccc1 [Tranylcypromine hydrochloride] | 47.2 | 54.5 | 64.6
O=C(N[C@H]1CN2CCC1CC2)c1cc2ccoc2cn1 | 43 | 38 | 56.5
CC(C)C1CNC(C(=O)O)C1CC(=O)O (stereo unspecified) [Dihydrokainic acid] | 35.1 | 47.1 | 61.7
NCCCP(=O)(O)O [3-Aminopropylphosphonic acid] | 30.8 | 34.5 | 53
CC1C2Cc3ccc(O)cc3C1(C)CCN2CC1CC1 (single isomer, unassigned; (+)) [(+)-Cyclazocine] | 37.2 | 49.4 | 58.3

Compound | general growth inhibition [1] [%] | growth inhibition [2] [%] | growth inhibition [3] [%]
CC(C)NC(C)Cc1ccc(I)cc1 (stereo unspecified) [Iofetamine hydrochloride] | 43.5 | 41.8 | 65.6
O=c1[nH]oc2c1CCNC2 [THIP hydrochloride] | 51.3 | 46.9 | 64.1
N#Cc1ccc(N2CCN(C(=O)COc3ccc4[nH]cc(CCN)c4c3)CC2)cc1 [Donitriptan monohydrochloride] | 23.9 | 28.1 | 50.7
CC(=O)OCC1=C(C(=O)[O-])N2C(=O)[C@@H](NC(=O)CCC[C@@H](N)C(=O)[O-])[C@H]2SC1.[Zn+2] [Cephalosporin C zinc salt] | 40.8 | 41 | 54.5
CCCN1CCC[C@@H]2Cc3nc(N)ncc3C[C@H]21 [Quinelorane dihydrochloride] | 13.6 | -4.37 | -15.6
C[C@@H](N)Cc1cnc[nH]1 [Histamine, R(-)-alpha-methyl-, dihydrochloride] | 26.7 | 40.7 | 62.1
Fc1ccc(C(OCCN2CCN(CCCc3ccccc3)CC2)c2ccc(F)cc2)cc1 | 14.2 | 19.9 | 20.4
CCOC(=O)c1ncn2c1[C@@H]1CCCN1C(=O)c1cc(OC)ccc1-2 | 46.2 | 42.6 | 67.8
C=C(C)[C@H]1Cc2c(ccc3c2O[C@@H]2COc4cc(OC)c(OC)cc4[C@@H]2C3=O)O1 [Rotenone] | 25.8 | 28.7 | 36.4
NC(=O)CN1CCCC1=O [Piracetam] | 43.3 | 45.8 | 52
CCn1cc(C(=O)O)c(=O)c2cc3c(cc21)OCO3 [Oxolinic acid] | 12.6 | 12.6 | 35.4
NC(=O)CN1CC(O)CC1=O (stereo unspecified) [Oxiracetam] | 51.2 | 56.7 | 64.1
CNCCc1c[nH]c2ccc(O)cc12 [N-omega-Methyl-5-hydroxytryptamine oxalate salt] | 54.7 | 50.6 | 68.6
NC(CCP(=O)(O)O)C(=O)O (racemic) [(±)-2-Amino-4-phosphonobutyric acid] | 34.6 | 40.9 | 56
Clc1ccc(N2CCN(Cc3c[nH]c4ncccc34)CC2)cc1 [L-745,870 hydrochloride] | 27.5 | 24.9 | 53
CNCC(O)c1ccc(O)cc1 (racemic) [(±)-Synephrine] | 54.1 | 44 | 67.6
CCC1(C2=NCCN2)Cc2ccccc2O1 (stereo unspecified) [Efaroxan hydrochloride] | 32.7 | 42.9 | 56.3
S=C(NC1CCCCC1)N1CCC(c2cnc[nH]2)CC1 [Thioperamide maleate] | 53.5 | 57 | 62.5
OC1CCCCC1N1CCC(c2ccccc2)CC1 (racemic) [(±)-Vesamicol hydrochloride] | 56.5 | 55.6 | 70.1
COC(=O)[C@@H](N)CCCNC(=N)N[N+](=O)[O-] [NG-Nitro-L-arginine methyl ester hydrochloride] | 52.2 | 41.2 | 71.2
CCCN(CCC)C1CCc2ccc(O)cc2C1 (stereo not drawn) [R-(+)-7-Hydroxy-DPAT hydrobromide] | 15.2 | 38.5 | 57.9

Compound | general growth inhibition [1] [%] | growth inhibition [2] [%] | growth inhibition [3] [%]
CN1[C@@H]2C[C@@H](OC(=O)[C@H](CO)c3ccccc3)C[C@H]1[C@@H]1O[C@@H]12 [(-)-Scopolamine hydrobromide] | 50.4 | 50.5 | 72.6
CC[C@@H](CO)NC(=O)[C@@H]1C=C2c3cccc4c3c(cn4C)C[C@H]2N(C)C1 [Methysergide maleate] | 46.8 | 45.7 | 55.1
CC(=O)[C@H]1CC[C@H]2[C@@H]3CC[C@H]4C[C@H](O)CC[C@]4(C)[C@H]3C(=O)C[C@]12C [5alpha-Pregnan-3alpha-ol-11,20-dione] | 68.7 | 55.2 | 62.4
Cc1nccc2c1[nH]c1ccccc12 [Harmane] | 31.8 | 15.6 | 55.5
CCCN(CCC)CCc1ccc(O)c(O)c1 [Dipropyldopamine hydrobromide] | 24.1 | 22.5 | 59.5
CC(NC(C)(C)C)C(=O)c1cccc(Cl)c1 (stereo unspecified) [Bupropion hydrochloride] | 31.6 | 35.1 | 57.6
c1ccc(C2CC2)c(OCC2=NCCN2)c1 [Cirazoline hydrochloride] | 26 | 50.6 | 67.1
C=CCN1CC[C@]23c4c5ccc(O)c4O[C@H]2C(=O)CC[C@@]3(O)[C@H]1C5 [Naloxone hydrochloride] | 47.1 | 49.2 | 64.9
CCCCc1ccc(C(=O)O)nc1 [Fusaric acid] | 46.2 | 47.4 | 58
NNC(N)=O [Semicarbazide hydrochloride] | 46.2 | 49.4 | 69.5
CN1C[C@H](C(=O)N[C@]2(C)O[C@@]3(O)[C@@H]4CCCN4C(=O)[C@H](Cc4ccccc4)N3C2=O)C[C@@H]2c3cccc4[nH]cc(c34)C[C@H]21 [Dihydroergotamine methanesulfonate] | 37.1 | 34.8 | 57.4
COc1ccc2c(c1OC)C(=O)OC2C1c2cc3c(cc2CCN1C)OCO3 (single isomer, unassigned; (+)) [(+)-Hydrastine] | 36.6 | 19 | 61.7
NCCc1c[nH]c2ccccc12 [Tryptamine hydrochloride] | 34.8 | 34.8 | 48.4
C/C=C(/C)C(=O)O[C@H]1C(C)=C2[C@H]([C@@H]1OC(=O)CCCCCCC)[C@@](C)(OC(C)=O)C[C@H](OC(=O)CCC)[C@@]1(O)[C@H]2OC(=O)[C@@]1(C)O [Thapsigargin] | 39.2 | 33.7 | 55.7
CC(C)NP(=O)(NC(C)C)OP(=O)(NC(C)C)NC(C)C [Tetraisopropyl pyrophosphoramide] | 48.1 | 50.8 | 52.3
O=C(O)[C@@H]1CCN1 [L-azetidine-2-carboxylic acid] | 48.9 | 51.5 | 62.4
CC(O)(CS(=O)(=O)c1ccc(F)cc1)C(=O)Nc1ccc(C#N)c(C(F)(F)F)c1 (stereo unspecified) [Bicalutamide (CDX)] | 53.5 | 47.6 | 68.8
CN[C@@H]1C[C@@H](c2ccc(Cl)c(Cl)c2)c2ccccc21 [Indatraline hydrochloride] | 35.4 | 35.7 | 61.1
C[N+]1(C)[C@@H]2CC[C@H]1C[C@@H](OC(=O)C(CO)c1ccccc1)C2 (stereo partly specified) [Atropine methyl nitrate] | 41.2 | 42.9 | 50.9
C[C@@H]1O[C@@H](O[C@H]2C[C@@H](O)[C@]3(CO)[C@H]4[C@H](O)C[C@]5(C)[C@@H]([C@@H]6COC(=O)C6)CC[C@]5(O)[C@@H]4CC[C@]3(O)C2)[C@H](O)[C@H](O)[C@H]1O [Dihydroouabain] | 43.1 | 47.4 | 59.8

Five records drawn at random from those above:
Compound | general growth inhibition [1] [%] | growth inhibition [2] [%] | growth inhibition [3] [%]
NCCc1c[nH]c2ccccc12 [Tryptamine hydrochloride] | 34.8 | 34.8 | 48.4
CN[C@@H]1C[C@@H](c2ccc(Cl)c(Cl)c2)c2ccccc21 [Indatraline hydrochloride] | 35.4 | 35.7 | 61.1
C/C=C(/C)C(=O)O[C@H]1C(C)=C2[C@H]([C@@H]1OC(=O)CCCCCCC)[C@@](C)(OC(C)=O)C[C@H](OC(=O)CCC)[C@@]1(O)[C@H]2OC(=O)[C@@]1(C)O [Thapsigargin] | 39.2 | 33.7 | 55.7
C=CCN1CC[C@]23c4c5ccc(O)c4O[C@H]2C(=O)CC[C@@]3(O)[C@H]1C5 [Naloxone hydrochloride] | 47.1 | 49.2 | 64.9
CC(NC(C)(C)C)C(=O)c1cccc(Cl)c1 (stereo unspecified) [Bupropion hydrochloride] | 31.6 | 35.1 | 57.6
